These are yes or no findings as the source states them, for the method shown. For some assays here: Binding seen in cells or lysates may run through a third protein. Some binding calls cover weakened binding; strength is not graded here. For some assays here: Sequences can lack the tags named with a protein.
Assays:
Heh1^GFP (S. cerevisiae) = target: T1, Heh1^GFP (S. cerevisiae) (UniProt Q03707); assay: co-IP; yeast cell lysates (50 mM Tris pH 7.5, 150 mM NaCl, 10% glycerol, 1 mM EDTA, 0.5% NP-40) on antiHA-sepharose, GFP-Trap or IgG-agarose beads, 1.5 h at 4 °C, immunoblot; cells also with cdc14-3 at 37 °C, phosphatase inhibitors, Net1 depletion, nur1Pmim, SUMO overexpression (WT, FAIA, KRall), Cdc48 mutants, STUbL deletions or I-PpoI rDNA damage
T1 sequence: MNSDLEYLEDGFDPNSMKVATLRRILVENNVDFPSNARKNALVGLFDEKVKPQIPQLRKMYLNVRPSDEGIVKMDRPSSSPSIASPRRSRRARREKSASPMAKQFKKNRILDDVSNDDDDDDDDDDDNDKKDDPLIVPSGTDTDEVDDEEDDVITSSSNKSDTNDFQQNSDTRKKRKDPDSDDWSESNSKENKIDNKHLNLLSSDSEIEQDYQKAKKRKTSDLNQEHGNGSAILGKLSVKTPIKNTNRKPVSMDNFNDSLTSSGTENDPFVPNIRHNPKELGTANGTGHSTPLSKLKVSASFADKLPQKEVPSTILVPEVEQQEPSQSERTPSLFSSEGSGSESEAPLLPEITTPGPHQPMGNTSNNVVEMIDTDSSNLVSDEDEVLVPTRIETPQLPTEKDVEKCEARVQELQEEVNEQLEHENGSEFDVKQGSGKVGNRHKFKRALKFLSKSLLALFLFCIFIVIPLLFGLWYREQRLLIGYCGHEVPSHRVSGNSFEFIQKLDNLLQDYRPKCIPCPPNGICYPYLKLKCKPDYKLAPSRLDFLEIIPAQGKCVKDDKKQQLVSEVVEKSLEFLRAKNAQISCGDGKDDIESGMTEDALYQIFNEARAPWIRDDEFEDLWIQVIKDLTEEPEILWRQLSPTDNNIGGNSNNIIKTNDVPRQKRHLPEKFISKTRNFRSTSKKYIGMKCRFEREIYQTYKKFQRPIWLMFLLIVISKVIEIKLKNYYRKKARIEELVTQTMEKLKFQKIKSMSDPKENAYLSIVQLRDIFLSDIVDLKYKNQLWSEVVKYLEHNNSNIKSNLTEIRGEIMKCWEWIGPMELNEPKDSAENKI

Lrs4^TAP (S. cerevisiae) = target: T2, Lrs4^TAP (S. cerevisiae) (UniProt Q04087); assay: as above
T2 sequence: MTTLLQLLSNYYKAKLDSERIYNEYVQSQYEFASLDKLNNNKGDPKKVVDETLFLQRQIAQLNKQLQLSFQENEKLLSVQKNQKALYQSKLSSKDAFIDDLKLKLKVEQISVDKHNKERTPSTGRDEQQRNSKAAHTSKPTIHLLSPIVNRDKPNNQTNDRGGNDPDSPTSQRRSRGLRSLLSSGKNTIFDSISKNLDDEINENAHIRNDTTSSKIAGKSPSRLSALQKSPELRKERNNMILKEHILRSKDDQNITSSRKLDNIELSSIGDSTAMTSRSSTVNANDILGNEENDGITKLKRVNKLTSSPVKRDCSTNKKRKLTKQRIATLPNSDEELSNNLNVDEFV

[1] = target: T3, Ufd1 (two-hybrid fusion) (S. cerevisiae) (UniProt P53044); assay: two-hybrid; Gal4 AD (pGADT7) and BD (pGBKT7) fusions in PJ69a, or Y187 mated with Y2HGold; spotting on -LW and on -LWH, -LWH + 1 mM 3-aminotriazol, -LWHA, 3 days unless indicated
T3 sequence: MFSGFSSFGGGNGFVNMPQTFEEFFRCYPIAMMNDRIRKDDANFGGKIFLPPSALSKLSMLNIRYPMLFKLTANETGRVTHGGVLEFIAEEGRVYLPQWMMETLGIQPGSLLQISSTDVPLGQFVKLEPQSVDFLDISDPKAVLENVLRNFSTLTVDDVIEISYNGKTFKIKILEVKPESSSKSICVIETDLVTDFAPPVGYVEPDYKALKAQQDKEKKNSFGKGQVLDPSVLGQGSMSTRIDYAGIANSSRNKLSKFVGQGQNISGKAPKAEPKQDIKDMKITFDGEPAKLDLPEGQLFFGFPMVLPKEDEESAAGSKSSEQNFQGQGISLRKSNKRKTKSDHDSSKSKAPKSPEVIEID

[2] = target: T4, Lrs4 (as in the co-immunoprecipitations of the supplementary figures) (S. cerevisiae) (UniProt Q04087); assay: co-IP; yeast cell lysates (50 mM Tris pH 7.5, 150 mM NaCl, 10% glycerol, 1 mM EDTA, 0.5% NP-40) on antiHA-sepharose, GFP-Trap or IgG-agarose beads, 1.5 h at 4 °C, immunoblot; cells also with cdc14-3 at 37 °C, phosphatase inhibitors, Net1 depletion, nur1Pmim, SUMO overexpression (WT, FAIA, KRall), Cdc48 mutants, STUbL deletions or I-PpoI rDNA damage
T4 sequence: T2 sequence

[3] = target: T5, Heh1 (as in the co-immunoprecipitations of the supplementary figures) (S. cerevisiae) (UniProt Q03707); assay: as above
T5 sequence: T1 sequence

B1: Nur1^3HA (HA-tagged Nur1 full-length) (protein, UniProt Q12066 1-484)
chain: MGSNDLINEAYDDSEVVGEERESKSAWMKRWYQLLTSPLDLQLVINEKLEMINWDAYAKSLAKPLGNFLTILFFIIRLLQDNLIKPNYYKLNVKSGAFDLSKSNKLKEFDYLWEISSSFQNNNQFYAFQSWYFVTLRFLNNLFRFTIFILLSLNLYVSCKFMFGYFKTYNLFHLKKEFNSPNLTKHNLKDLSKEYYEDIYKQSLWSMLKHFFRGSRDDGPHVNQNEDEIFFQLRKWIPTNFMINLFVSFSPTAIVFLSFSDVSFTSAIAIVFHQYILDYIITKRFQRSVDDDLILSSAALQEYEDKHIMARINQCSNIDTLSSAMGTRSKTPRIFTTHSLCGEEIREVYNYEKREFEALPKMTESVPGSRETRIKDYGGISQVSDHQSHPIGFHYSPRMSPYYRDKVLDNNLAQSSSNENLEKGGAYLPNQDQNRPSKSLSPLRKTPLSARQKRFEGSEFNVLNKNDINSILRSPKKKKNYHKR
For B1, the binding (Heh1^GFP (S. cerevisiae)) was “binds”.

B2: Heh1^GFP (protein, UniProt Q03707 1-834)
chain: T1 sequence
With B2 the binding (Lrs4^TAP (S. cerevisiae)) was “binds”.

B3: Lrs4 (two-hybrid fusion) (protein, UniProt Q04087 1-347)
chain: T2 sequence
In the case of B3, the binding [1] is reported as “binds”.

B4: N-terminal GFP-Heh1 fusion, long splice variant (Heh1) (protein, UniProt Q03707 1-834)
chain: T1 sequence
B4 was tested, and the binding [2] was “binds”.

B5: Nur1 lacking its last C-terminal residues (as in Supplementary Fig. 2e) (domain or fragment, UniProt Q12066 1-430)
chain: MGSNDLINEAYDDSEVVGEERESKSAWMKRWYQLLTSPLDLQLVINEKLEMINWDAYAKSLAKPLGNFLTILFFIIRLLQDNLIKPNYYKLNVKSGAFDLSKSNKLKEFDYLWEISSSFQNNNQFYAFQSWYFVTLRFLNNLFRFTIFILLSLNLYVSCKFMFGYFKTYNLFHLKKEFNSPNLTKHNLKDLSKEYYEDIYKQSLWSMLKHFFRGSRDDGPHVNQNEDEIFFQLRKWIPTNFMINLFVSFSPTAIVFLSFSDVSFTSAIAIVFHQYILDYIITKRFQRSVDDDLILSSAALQEYEDKHIMARINQCSNIDTLSSAMGTRSKTPRIFTTHSLCGEEIREVYNYEKREFEALPKMTESVPGSRETRIKDYGGISQVSDHQSHPIGFHYSPRMSPYYRDKVLDNNLAQSSSNENLEKGGAYLPN
With B5 the binding [3] was “binds”.
